The exact form of at least one protein or probe is not confirmed. For part of these data: A weaker result is weaker than the reference pair of the same experiment. For part of these data: At least one verdict rests on a figure or table, not on a statement of the authors.
Columns and labels:
[1] = test system: NR5A2 wild type + histone octamer; assay: SeEN-seq (EMSA of nucleosome library followed by sequencing); settings: 0.8 uM human NR5A2; reconstituted with mouse histones H2A, H2B, H3.3 and H4; 20 mM Tris-HCl pH 7.5, 120 mM NaCl, 1 mM MgCl2, 10 uM ZnCl2, 1 mM DTT, 100 ug/ml BSA, room temperature, 30 min; 0.1 uM nucleosome library; high values mean tight binding; recombinant protein; DNA in a nucleosome; counted as no binding; scale: log2 enrichment
[2] = target: NR5A2 wild type (Homo sapiens) (UniProt O00482); assay: EMSA; settings: 10 uM ZnCl2, 1 mM MgCl2; EMSA: 20 mM Tris-HCl pH 7.5, 120 mM NaCl, 1 mM MgCl2, 10 uM ZnCl2, 1 mM DTT, 100 ug/ml BSA, room temperature, 30 min; 50 nM DNA or nucleosome; recombinant protein
[3] = target: NR5A2 R162A (Homo sapiens) (UniProt O00482); assay: EMSA; settings: slightly reduced; EMSA: 20 mM Tris-HCl pH 7.5, 120 mM NaCl, 1 mM MgCl2, 10 uM ZnCl2, 1 mM DTT, 100 ug/ml BSA, room temperature, 30 min; 50 nM DNA or nucleosome; recombinant protein

Sequence	binding signal [1]	binding result [2]	binding result [3]
ATCCTGGTCAAGGCCAGTGCCGAGGCCGCTCAATTGGTCGTAGACAGCTCTAGCACCGCTTAAACGCACGTACGCGCTGTCCCCCGCGTTTTAACCGCCAAGGGGATTACTCCCTAGTCTCCAGGCACGTGTCAGATATATACATCCTGTGAT (double strand) [5]	-0.0162		
GAGAGAGTCAAGGCCATGGCTCACT (double strand) [25 bp DNA with Nr5a2 consensus motif]		binds	binds more weakly
